# Measured values as given in patent US20110039825A1, “LIGANDS OF ALPHA-ADRENOCEPTORS, DOPAMINE, HISTAMINE, IMIDAZOLINE AND SEROTONIN RECEPTORS AND THEIR USE” (Alla Chem, LLC, priority 2007, published 2011).
# System: imidazoline receptor I2
# Assay: radioligand binding to imidazoline receptor I2 ([3H] Idazoxan)
# Design: species or system rat
# Method: Determination of investigated compounds' binding to imidazoline I2 receptor is carried out according to the method described in [Brown C M, MacKinnon A C, McGrath J C, Spedding M and Kilpatrick A T, a2-Adrenoceptor subtypes and imidazoline-like binding in the rat brain. Br J. Pharmacol. 99:803-809, 1990]. […] Idazoxan is used as positive control.
structure (smiles),measurement,value
"Cc1ccc2c(c1)c1c(n2CCc2ccccc2)CCN(C)C1.Cl [1.1.2(1-2)•HCl, 2,8-dimethyl-5-phenethyl-1,2,3,4-tetrahydro-1H-pyrido[4,3-b]indole hydrochloride]",nH imidazoline I2,0.804
